Measured values from PubChem BioAssay AID504847 (National Center for Advancing Translational Sciences (NCATS), 2011).
Out of some 400,000 compounds screened, about 3,700 (0.93%) were called active. This list was built around the results that the source calls inconclusive (neither active nor inactive); the mix of calls is not that of the screen. The call rests on the fitted dose curve; in most records, active means well fitted inhibition curve with a large enough effect; inconclusive means small, poorly fitted or top-dose-only effect, or another doubt; inactive means no such curve, though single readings can be large or run the other way. A potency beside an inconclusive call is a rough fit, not a confirmed value.

The chains behind the UniProt entries cited, without tags or fusion partners. Where a name states a change or a piece, a line headed by the entry shows the natural chain unless it says otherwise.
UniProt P11473: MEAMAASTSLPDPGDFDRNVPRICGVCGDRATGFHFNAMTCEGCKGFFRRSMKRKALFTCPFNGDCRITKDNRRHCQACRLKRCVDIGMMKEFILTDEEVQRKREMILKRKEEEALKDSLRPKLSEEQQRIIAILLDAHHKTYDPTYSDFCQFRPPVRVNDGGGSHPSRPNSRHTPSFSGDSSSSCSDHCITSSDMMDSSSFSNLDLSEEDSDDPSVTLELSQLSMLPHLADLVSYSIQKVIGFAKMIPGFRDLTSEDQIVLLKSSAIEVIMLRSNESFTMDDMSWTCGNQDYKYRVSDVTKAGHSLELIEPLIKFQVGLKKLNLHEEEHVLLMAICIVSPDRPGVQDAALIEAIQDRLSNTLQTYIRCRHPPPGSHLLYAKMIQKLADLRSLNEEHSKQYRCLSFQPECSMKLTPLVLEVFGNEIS

Biological target: Vitamin D3 receptor (Homo sapiens) (UniProt P11473)
Test: Inhibitors of the vitamin D receptor (VDR): qHTS
Settings: VDR-SRC2-3 peptide fluorescence polarization, 2 h; max response, negative = inhibition: hits give low values
Summary of the method: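 Fluorescence polarization assay measuring small-molecule disruption of VDR binding to the coregulator peptide SRC2-3. Compounds were pin-transferred (23 nl) into the reagent mix and incubated 2 h at room temperature before reading.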
On the % scale 0 is the no-effect control and ±100 the full control effect; potency means the concentration at half of the fitted maximal effect.

Max response, negative = inhibition, inactive:
COc1ccc(CCn2c(=S)[nH]c3ccc(N4CCOCC4)cc3c2=O)cc1OC -16.6%
CCS(=O)(=O)CCSc1nc2ccccc2s1 9.18%
Clc1ccc(-c2nc3ncccn3c2Nc2ccc3c(c2)OCO3)cc1 -9.19%
CCCC(=O)Nc1nc(C)c(-c2csc(Nc3ccccc3C)n2)s1 12.6%
CCOC(=O)c1c(-c2ccccc2)oc2cc(Br)c(OCc3ccccc3)cc12 8.48%
Cc1ccc(OCCCCn2nnc3sc4c(c3c2=O)CCC(C)C4)cc1 (stereo not given) 2.73%
N#CCCN1CCN(S(=O)(=O)c2ccc(S(=O)(=O)NC3CCCC3)cc2)CC1 -0.922%
COc1ccc(NC(=O)c2cccnn2)cc1 5.13%
COc1cc(N=Nc2cccc(S(N)(=O)=O)c2)c2ccccc2c1N -1.73%
CNc1nc(-c2ccccc2)c(-c2ccccc2)s1 -1.09%
CCCCn1c(N)c(N(CCOC)C(=O)CC(NC(=O)c2ccccc2Cl)c2ccccc2)c(=O)[nH]c1=O (stereo not given) -16.3%
Cc1ccc(C)c(NC(=O)CN(C)C(C)C(=O)N2CCCC2)c1 (stereo not given) 0.687%
CCOCCCNC(=O)c1ccc2c(=O)n(Cc3ccc4c(c3)OCO4)c(=S)[nH]c2c1 -5.84%
N#Cc1cccc(NC(=O)CNc2cc(S(=O)(=O)N3CCOCC3)ccc2N2CCCC2)c1 8.51%
CCOc1ccc2c(c1)NC(c1ccc(OCC)c(OCC)c1)=NC(c1ccc(F)cc1)=N2 4.98%
COC(=O)c1c(NC(=O)C2COc3ccccc3O2)sc2c1CCN(C(C)=O)C2 (stereo not given) 11.2%
CCc1c(C)nc2c(OC)cccc2c1SCCC(=O)O -13.4%
COc1ccc(N(C(=O)c2snc(C(N)=O)c2N)C(C(=O)NC2CCCC2)c2cc(OC)ccc2OC)c(OC)c1 (stereo not given) 6.57%

Potency, active:
CN(Cc1ccco1)c1cc(-c2ccccc2C(F)(F)F)ncn1 39.8 µM
COc1cc(/C=C(\C#N)C(=O)NC2CCCCC2C)ccc1OS(=O)(=O)c1ccc(C)cc1 (stereo not given) 79.4 µM
O=C(O)CSc1c2ccccc2cc2ccccc12 70.8 µM
CCOC(=O)C1Nc2ccc(C(=O)O)cc2C2C=CCC12 (stereo not given) 15.8 µM

Potency, inconclusive:
CC[C@H]1C(c2cccc(Cl)c2)=NN(c2ccccc2)[C@@H]1CO 126 µM [inhibitor, single point]
Cc1cc(N(CC(=O)NC(C)C)S(C)(=O)=O)ccc1Br 89.1 µM [inhibitor, single point]
COC(=O)c1ccccc1CSc1nsc(/C=C/N(C)C)c1C#N 56.2 µM [inhibitor, partial curve, poor fit]
COC(=O)c1ccc(CSc2cc(C)c3ccccc3n2)o1 89.1 µM [inhibitor, partial curve, poor fit]
CC1=NN(c2ccccc2)C(=O)/C1=C\c1sccc1C 79.4 µM [inhibitor, single point]
COc1ccc(-c2cc(OC(=O)c3ccc(Cl)cc3)c3c(C)oc(C)c3c(=O)c2)cc1 50.1 µM [inhibitor, partial curve, poor fit]
C=CCn1c(SCC(=O)NCCCC)nc2scc(-c3ccco3)c2c1=O 56.2 µM [inhibitor, partial curve, poor fit]
COc1cc(/C=C2/NC(=O)N(CC(=O)Nc3cccc(C)c3)C2=O)ccc1OCC(N)=O 50.1 µM [inhibitor, partial curve, poor fit]
Cc1cc(C)cc(NC(=O)NCc2nnc(SCc3ccccc3)n2C)c1 1.58 µM [inhibitor, partial curve, poor fit]
O=C(CCl)c1cc2c3c(c1)CC(=O)N3CCC2 39.8 µM [inhibitor, partial curve]
O=C(O)CCCCCN1C(=O)/C(=C\c2ccncc2)SC1=S 79.4 µM [inhibitor, partial curve]
Cc1cccc(N(CC(=O)NC(C)C)C(=O)CCC(=O)Nc2ccccn2)c1 50.1 µM [inhibitor, partial curve]
CCC(C)S(=O)(=O)c1oc(-c2ccc(F)cc2)nc1S(=O)(=O)c1ccc(F)cc1 (stereo not given) 25.1 µM [inhibitor, partial curve, poor fit]
O=C(CCNc1cccc(F)c1)c1cc2ccccc2o1 20 µM [inhibitor, partial curve, poor fit]
Cc1cccc(NC(c2ccc(C)s2)c2ccc3ccc(C)nc3c2O)n1 (stereo not given) 89.1 µM [inhibitor, single point]
CC(=O)OCCCNc1cc(Sc2nc3ccccc3s2)c2nonc2c1[N+](=O)[O-] 89.1 µM [inhibitor, partial curve, poor fit]
C=C1C(CCl)(CCl)C2(Cl)C(Cl)C(Cl)C1(Cl)C2(Cl)Cl (stereo not given) 44.7 µM [inhibitor, partial curve]
O=C(Nc1nnc(-c2cccs2)o1)c1cccc(C(F)(F)F)c1 79.4 µM [inhibitor, partial curve, poor fit]
CC1CCCCC1NC(=O)CSC1=Nc2ccccc2C2CC=NN12 (stereo not given) 89.1 µM [inhibitor, single point]
[S-]C(=Nc1ccc(Cl)cc1)N[n+]1ccccc1 89.1 µM [inhibitor, single point]
CCn1c(CSc2ncn[nH]2)nc2cc(C(=O)O)ccc21 56.2 µM [inhibitor, partial curve, poor fit]
CCOc1ccc(-n2c(=S)sc3c(=O)n(-c4ccccc4)c(SC)nc32)cc1 100 µM [inhibitor, single point]
CC1CCN(C(=O)Nc2ccc3nc(-c4ccco4)c(-c4ccco4)nc3c2)CC1 22.4 µM [inhibitor, full curve, poor fit]
COc1cc(-c2nn3c(COc4ccccc4)nnc3s2)cc(OC)c1OC 89.1 µM [inhibitor, single point]
NNC(=O)CN1C(=O)Nc2ccc(Br)cc2C1c1ccccc1 (stereo not given) 89.1 µM [inhibitor, partial curve, poor fit]
S=c1nc(-c2cc(Cl)ccc2Cl)[nH][nH]1 89.1 µM [inhibitor, single point]
CCOC(=O)C1C(=O)C=C(c2ccc(OC)cc2)CC1c1ccco1 (stereo not given) 89.1 µM [inhibitor, single point]
CC(C)(C)CN1C(=O)C(=O)NC[C@H]1Cc1ccc(O)cc1 100 µM [inhibitor, single point]
c1nc(N2CCOCC2)c2cc(-c3ccoc3)ccc2n1 50.1 µM [inhibitor, partial curve]
O=C(Cn1nnc2ccccc21)OCc1ccccc1 100 µM [inhibitor, single point]
Cc1cccc(C(=O)Oc2csc(=S)n2C(=O)c2cccc(C)c2)c1 44.7 µM [inhibitor, partial curve, poor fit]
COc1ccc(NC(=O)C2CCCN2C(=O)NC2CCCCC2)cc1 (stereo not given) 79.4 µM [inhibitor, single point]
CCOc1cc(/C=C(\C#N)C(=O)Nc2ccccc2C(=O)O)ccc1OC(=O)c1ccc(C)cc1 89.1 µM [inhibitor, partial curve]
CC1(OC(=O)C2CCCC2)C(=O)C=C2C=C(c3ccsc3)N(CCc3c[nH]c4ccccc34)C=C2C1=O (stereo not given) 79.4 µM [inhibitor, partial curve, poor fit]
COc1cccc(C2CC(c3ccc(Cl)cc3)n3nc(N)nc3N2)c1 (stereo not given) 56.2 µM [inhibitor, partial curve, poor fit]
Cc1ccc(-c2csc(NS(=O)(=O)c3cccc(F)c3)n2)o1 79.4 µM [inhibitor, single point]
Cc1cccc(C)c1Nc1nnc(SCC(=O)Nc2ncc(C(F)(F)F)cc2Cl)s1 89.1 µM [inhibitor, single point]
CC[C@H](C)[C@@H]1NC(=O)c2cc([N+](=O)[O-])cc(F)c2NCCCC[C@@H](C(N)=O)NC(=O)[C@H](CC(N)=O)NC1=O 44.7 µM [inhibitor, partial curve, poor fit]
COc1cccc(-c2cc(NCc3cccnc3)ncn2)c1 79.4 µM [inhibitor, partial curve, poor fit]
CCN(CC)c1ccc(/C=N/Nc2cccc(C)c2)c(O)c1 63.1 µM [inhibitor, partial curve, poor fit]
CC(C)C[C@@]12C(=O)N(c3cccc(F)c3)C(=O)N1[C@H](c1ccc(Cl)cc1)[C@@H]1C(=O)N(C3CCCCC3)C(=O)[C@@H]12 100 µM [inhibitor, single point]
CC(=O)c1cccc(NC(=O)C(C)OC(=O)c2ccc(S(C)(=O)=O)c([N+](=O)[O-])c2)c1 (stereo not given) 44.7 µM [inhibitor, partial curve, poor fit]
COCc1[nH]c(=S)c(C#N)cc1C(=O)OC 56.2 µM [inhibitor, partial curve, poor fit]

Some of these compounds in order of count of non-hydrogen atoms, high to low:
Potency, inconclusive:
COc1cc(/C=C2/NC(=O)N(CC(=O)Nc3cccc(C)c3)C2=O)ccc1OCC(N)=O 50.1 µM [inhibitor, partial curve, poor fit]
Cc1ccc(-c2csc(NS(=O)(=O)c3cccc(F)c3)n2)o1 79.4 µM [inhibitor, single point]
CC(C)(C)CN1C(=O)C(=O)NC[C@H]1Cc1ccc(O)cc1 100 µM [inhibitor, single point]
